Measured data: PubChem BioAssay AID504774 (Drosophila RNAi Screening Center, 2011)
Screen: 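Fly genes whose loss alters survival after alkylation damage to DNA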 (primary screen). Cell system: Drosophila Kc167 cells. Knock-down reagent: long dsRNA against Drosophila genes, about 0.25 µg dsRNA per well. Timing: about 6 days: 3 days knock-down, then 3 days with or without MMS. Treatment: methyl methanesulphonate 0.004% (w/v) for 3 days after knock-down. Read-out: 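ATP-dependent luminescence as a measure of live cells in MMS-exposed wells, quantile normalised within each plate, with replicate values also given as a mean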. Reading the numbers: mean viability with MMS and viability with MMS: higher = more surviving cells after MMS.
The screen tested about 23,000 reagents; shown is an unselected part of those that have a named target and a result. 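Values are quantile-normalised luminescence on an arbitrary scale; higher means more cells surviving MMS.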 Names joined by + are all predicted targets of the reagent.

Gene	DRSC id	mean viability with MMS	viability with MMS, replicate 1	viability with MMS, replicate 2
CG15877	DRSC08485	3.52e6	4.03e6	3.95e6
sty	DRSC08737	3.63e6	4.00e6	4.18e6
sty	DRSC22994	3.42e6	3.77e6	4.01e6
CG4597	DRSC10432	3.45e6	4.00e6	3.83e6
Xpd	DRSC04666	3.56e6	3.97e6	3.82e6
CG11843	DRSC14401	3.55e6	4.12e6	3.91e6
RpS5b	DRSC16173	3.43e6	3.74e6	4.02e6
CG12863	DRSC06203	3.50e6	4.04e6	3.90e6
CG9706	DRSC11095	3.59e6	3.98e6	4.16e6
CG9304	DRSC04538	3.57e6	4.09e6	4.02e6
CG15760	DRSC19725	3.53e6	4.01e6	3.98e6
CG33109	DRSC16533	3.47e6	3.93e6	3.94e6
qvr	DRSC05280	3.55e6	3.99e6	4.05e6
chb	DRSC11469	3.46e6	3.91e6	3.96e6
chas	DRSC19508	3.61e6	4.10e6	4.07e6
chas	DRSC19509	3.76e6	4.22e6	4.16e6
Gba1a	DRSC21494	3.72e6	4.21e6	4.16e6
l(3)87Df	DRSC16982	3.61e6	3.95e6	4.27e6
Grl36a	DRSC21748	3.63e6	4.07e6	4.15e6
CG6749	DRSC10704	3.60e6	4.09e6	4.05e6
flw	DRSC17992	3.52e6	4.01e6	3.95e6
flw	DRSC18774	3.36e6	3.78e6	3.85e6
MED11	DRSC10739	2.88e6	3.49e6	3.49e6
MED11	DRSC23091	2.95e6	3.03e6	3.45e6
CG6362	DRSC07413	3.52e6	3.85e6	4.14e6
CG17931 + CG42446	DRSC15293	3.52e6	3.87e6	4.11e6
obst-B	DRSC01987	3.71e6	4.27e6	4.20e6
IP3K2	DRSC19500	3.58e6	3.99e6	4.11e6
IP3K2	DRSC19747	3.56e6	4.00e6	4.05e6
IP3K2	DRSC22614	3.67e6	4.10e6	4.14e6
CG10472	DRSC09730	3.71e6	4.26e6	4.17e6
CG2930	DRSC17730	3.55e6	3.97e6	4.09e6
CG12935	DRSC06248	3.58e6	4.07e6	4.05e6
CG34001	DRSC09042	3.54e6	4.08e6	3.96e6
ox	DRSC07520	3.33e6	3.67e6	3.76e6
CG43740	DRSC17994	3.68e6	4.04e6	4.26e6
CG43740	DRSC23267	3.62e6	4.07e6	4.15e6
CG14402	DRSC02386	3.76e6	4.47e6	3.98e6
Atg9	DRSC06848	3.60e6	4.19e6	3.99e6
bcn92	DRSC18741	3.54e6	3.92e6	4.11e6

Continued, starting with the last 5 of the part before.
Gene	DRSC id	mean viability with MMS	viability with MMS, replicate 1	viability with MMS, replicate 2
CG43740	DRSC17994	3.68e6	4.04e6	4.26e6
CG43740	DRSC23267	3.62e6	4.07e6	4.15e6
CG14402	DRSC02386	3.76e6	4.47e6	3.98e6
Atg9	DRSC06848	3.60e6	4.19e6	3.99e6
bcn92	DRSC18741	3.54e6	3.92e6	4.11e6
Ca-beta	DRSC02406	3.48e6	3.97e6	3.92e6
Ca-beta	DRSC02407	3.64e6	4.12e6	4.12e6
Ca-beta	DRSC03285	3.73e6	4.02e6	4.09e6
Ca-beta	DRSC21432	3.57e6	4.04e6	4.05e6
Rcd1	DRSC07116	3.58e6	3.98e6	4.13e6
CG14797	DRSC17955	3.55e6	4.00e6	4.06e6
Prosalpha5	DRSC07514	3.14e6	3.69e6	3.62e6
tzn	DRSC11755	3.57e6	4.12e6	3.97e6
Acadvl	DRSC07022	3.79e6	4.32e6	4.26e6
CG10208	DRSC14211	3.47e6	4.00e6	3.85e6
TrxT	DRSC22182	3.52e6	3.97e6	4.00e6
TrxT	DRSC23117	3.45e6	3.98e6	3.87e6
Irk3	DRSC02047	3.59e6	4.05e6	4.10e6
Nos	DRSC03381	3.63e6	4.16e6	4.10e6
CG8089	DRSC07074	3.56e6	4.15e6	3.96e6
Phae1	DRSC02554	3.82e6	4.16e6	4.33e6
CG13042	DRSC09923	3.55e6	3.92e6	4.12e6
CG4752	DRSC04486	3.39e6	3.76e6	3.87e6
CG7720	DRSC16306	3.54e6	4.04e6	3.98e6
CG7720	DRSC16307	2.05e6	4.17e6	4.20e6
x16	DRSC00960	3.31e6	3.65e6	3.88e6
x16	DRSC03638	3.61e6	4.21e6	4.00e6
robo1	DRSC04712	3.74e6	4.19e6	4.26e6
Gpdh2	DRSC04346	3.68e6	4.36e6	3.97e6
CG1840	DRSC19806	3.43e6	4.03e6	3.63e6
cwo	DRSC17072	3.79e6	4.25e6	4.17e6
Atf-2	DRSC04130	3.29e6	2.93e6	4.06e6
Atf-2	DRSC04413	1.60e6	3.88e6	3.64e6
